Read-outs that look alike come from different tables or passages of the source. These are yes or no findings as the source states them, for the method shown. Binding seen in cells or lysates may run through a third protein. A yes stands for co-enrichment or nearness to the bait. Other partners may have been found. For some assays here: Tags and fused reporters may be left off the sequences shown.
Experiments:
Assay in all cases: proximity labelling
MYC:APEX2:RAB25 (human) [1] = target: T1, MYC:APEX2:RAB25 (human) (UniProt P57735)
T1 sequence: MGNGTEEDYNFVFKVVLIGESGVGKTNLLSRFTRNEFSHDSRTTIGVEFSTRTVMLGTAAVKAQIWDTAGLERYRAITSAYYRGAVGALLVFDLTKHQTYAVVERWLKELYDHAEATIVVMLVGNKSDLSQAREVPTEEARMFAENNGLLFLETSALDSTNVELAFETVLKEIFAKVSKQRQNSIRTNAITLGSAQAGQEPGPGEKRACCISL

Sequences of proteins named here, by UniProt entry; tags and fusion partners are left off.
UniProt Q9UL25: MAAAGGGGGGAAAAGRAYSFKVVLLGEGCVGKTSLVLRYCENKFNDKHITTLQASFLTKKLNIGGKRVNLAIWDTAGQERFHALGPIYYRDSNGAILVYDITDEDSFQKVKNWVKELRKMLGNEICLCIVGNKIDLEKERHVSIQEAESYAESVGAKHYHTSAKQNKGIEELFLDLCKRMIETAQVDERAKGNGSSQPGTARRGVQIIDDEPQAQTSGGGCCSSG
UniProt P51149: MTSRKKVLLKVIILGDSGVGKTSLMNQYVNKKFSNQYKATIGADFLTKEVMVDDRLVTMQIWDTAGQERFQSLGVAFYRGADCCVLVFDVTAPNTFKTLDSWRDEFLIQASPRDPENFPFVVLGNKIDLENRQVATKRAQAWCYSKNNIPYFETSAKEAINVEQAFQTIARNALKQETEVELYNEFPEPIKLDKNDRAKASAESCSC
UniProt Q15286: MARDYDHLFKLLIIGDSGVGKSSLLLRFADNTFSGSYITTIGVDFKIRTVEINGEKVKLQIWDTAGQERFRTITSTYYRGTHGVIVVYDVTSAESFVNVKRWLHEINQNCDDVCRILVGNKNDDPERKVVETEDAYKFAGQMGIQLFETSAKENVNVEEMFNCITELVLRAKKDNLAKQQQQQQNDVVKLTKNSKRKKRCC
UniProt Q9Y5R8: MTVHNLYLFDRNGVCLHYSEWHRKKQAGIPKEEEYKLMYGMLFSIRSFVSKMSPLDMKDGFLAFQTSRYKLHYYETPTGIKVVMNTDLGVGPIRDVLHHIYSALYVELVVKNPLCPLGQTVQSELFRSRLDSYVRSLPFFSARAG
UniProt Q96NW4: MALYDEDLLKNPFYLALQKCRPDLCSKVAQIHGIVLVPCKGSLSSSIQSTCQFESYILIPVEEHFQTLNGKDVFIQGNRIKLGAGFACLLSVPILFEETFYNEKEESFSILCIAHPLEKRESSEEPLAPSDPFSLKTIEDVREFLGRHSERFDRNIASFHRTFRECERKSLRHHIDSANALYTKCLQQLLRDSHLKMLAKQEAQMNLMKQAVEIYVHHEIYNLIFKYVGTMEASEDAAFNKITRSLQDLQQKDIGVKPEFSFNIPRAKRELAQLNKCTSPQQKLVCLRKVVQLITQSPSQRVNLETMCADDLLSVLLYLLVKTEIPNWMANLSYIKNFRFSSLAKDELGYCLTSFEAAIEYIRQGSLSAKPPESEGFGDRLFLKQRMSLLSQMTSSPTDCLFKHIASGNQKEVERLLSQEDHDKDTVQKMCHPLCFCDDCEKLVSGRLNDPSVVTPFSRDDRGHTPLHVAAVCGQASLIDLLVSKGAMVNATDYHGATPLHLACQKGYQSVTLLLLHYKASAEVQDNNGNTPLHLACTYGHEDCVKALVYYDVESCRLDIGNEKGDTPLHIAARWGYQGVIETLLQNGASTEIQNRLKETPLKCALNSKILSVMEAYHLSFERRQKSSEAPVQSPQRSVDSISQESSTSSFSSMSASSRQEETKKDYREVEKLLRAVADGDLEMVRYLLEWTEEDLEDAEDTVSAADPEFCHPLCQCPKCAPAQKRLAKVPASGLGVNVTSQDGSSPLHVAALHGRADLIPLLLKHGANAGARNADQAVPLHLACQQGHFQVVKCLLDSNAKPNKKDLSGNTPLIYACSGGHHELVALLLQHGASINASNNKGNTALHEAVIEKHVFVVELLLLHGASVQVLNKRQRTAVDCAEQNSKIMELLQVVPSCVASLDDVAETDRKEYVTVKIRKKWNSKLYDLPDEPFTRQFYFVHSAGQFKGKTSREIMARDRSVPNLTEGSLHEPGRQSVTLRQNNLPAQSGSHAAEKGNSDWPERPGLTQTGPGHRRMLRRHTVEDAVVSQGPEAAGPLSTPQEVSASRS
UniProt Q92609: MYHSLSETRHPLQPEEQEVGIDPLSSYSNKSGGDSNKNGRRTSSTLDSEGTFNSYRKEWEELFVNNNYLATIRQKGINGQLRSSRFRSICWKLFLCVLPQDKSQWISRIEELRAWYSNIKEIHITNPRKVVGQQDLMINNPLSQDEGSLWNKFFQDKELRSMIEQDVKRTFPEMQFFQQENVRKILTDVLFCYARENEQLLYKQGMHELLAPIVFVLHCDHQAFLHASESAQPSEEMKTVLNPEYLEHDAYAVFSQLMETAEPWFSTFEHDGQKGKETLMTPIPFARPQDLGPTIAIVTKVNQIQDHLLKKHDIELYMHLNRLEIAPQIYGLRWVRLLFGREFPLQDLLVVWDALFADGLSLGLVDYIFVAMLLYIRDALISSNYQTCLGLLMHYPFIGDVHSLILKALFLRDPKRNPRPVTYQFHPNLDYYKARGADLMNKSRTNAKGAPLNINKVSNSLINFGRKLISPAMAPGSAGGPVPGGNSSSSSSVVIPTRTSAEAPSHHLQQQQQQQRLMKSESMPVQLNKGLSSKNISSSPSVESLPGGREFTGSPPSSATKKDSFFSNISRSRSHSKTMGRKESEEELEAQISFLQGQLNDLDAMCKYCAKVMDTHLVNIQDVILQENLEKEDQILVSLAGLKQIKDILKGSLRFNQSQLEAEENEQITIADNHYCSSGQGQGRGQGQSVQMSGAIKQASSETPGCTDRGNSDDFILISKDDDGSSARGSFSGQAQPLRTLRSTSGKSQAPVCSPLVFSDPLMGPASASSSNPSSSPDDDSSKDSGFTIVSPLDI
UniProt Q96Q42: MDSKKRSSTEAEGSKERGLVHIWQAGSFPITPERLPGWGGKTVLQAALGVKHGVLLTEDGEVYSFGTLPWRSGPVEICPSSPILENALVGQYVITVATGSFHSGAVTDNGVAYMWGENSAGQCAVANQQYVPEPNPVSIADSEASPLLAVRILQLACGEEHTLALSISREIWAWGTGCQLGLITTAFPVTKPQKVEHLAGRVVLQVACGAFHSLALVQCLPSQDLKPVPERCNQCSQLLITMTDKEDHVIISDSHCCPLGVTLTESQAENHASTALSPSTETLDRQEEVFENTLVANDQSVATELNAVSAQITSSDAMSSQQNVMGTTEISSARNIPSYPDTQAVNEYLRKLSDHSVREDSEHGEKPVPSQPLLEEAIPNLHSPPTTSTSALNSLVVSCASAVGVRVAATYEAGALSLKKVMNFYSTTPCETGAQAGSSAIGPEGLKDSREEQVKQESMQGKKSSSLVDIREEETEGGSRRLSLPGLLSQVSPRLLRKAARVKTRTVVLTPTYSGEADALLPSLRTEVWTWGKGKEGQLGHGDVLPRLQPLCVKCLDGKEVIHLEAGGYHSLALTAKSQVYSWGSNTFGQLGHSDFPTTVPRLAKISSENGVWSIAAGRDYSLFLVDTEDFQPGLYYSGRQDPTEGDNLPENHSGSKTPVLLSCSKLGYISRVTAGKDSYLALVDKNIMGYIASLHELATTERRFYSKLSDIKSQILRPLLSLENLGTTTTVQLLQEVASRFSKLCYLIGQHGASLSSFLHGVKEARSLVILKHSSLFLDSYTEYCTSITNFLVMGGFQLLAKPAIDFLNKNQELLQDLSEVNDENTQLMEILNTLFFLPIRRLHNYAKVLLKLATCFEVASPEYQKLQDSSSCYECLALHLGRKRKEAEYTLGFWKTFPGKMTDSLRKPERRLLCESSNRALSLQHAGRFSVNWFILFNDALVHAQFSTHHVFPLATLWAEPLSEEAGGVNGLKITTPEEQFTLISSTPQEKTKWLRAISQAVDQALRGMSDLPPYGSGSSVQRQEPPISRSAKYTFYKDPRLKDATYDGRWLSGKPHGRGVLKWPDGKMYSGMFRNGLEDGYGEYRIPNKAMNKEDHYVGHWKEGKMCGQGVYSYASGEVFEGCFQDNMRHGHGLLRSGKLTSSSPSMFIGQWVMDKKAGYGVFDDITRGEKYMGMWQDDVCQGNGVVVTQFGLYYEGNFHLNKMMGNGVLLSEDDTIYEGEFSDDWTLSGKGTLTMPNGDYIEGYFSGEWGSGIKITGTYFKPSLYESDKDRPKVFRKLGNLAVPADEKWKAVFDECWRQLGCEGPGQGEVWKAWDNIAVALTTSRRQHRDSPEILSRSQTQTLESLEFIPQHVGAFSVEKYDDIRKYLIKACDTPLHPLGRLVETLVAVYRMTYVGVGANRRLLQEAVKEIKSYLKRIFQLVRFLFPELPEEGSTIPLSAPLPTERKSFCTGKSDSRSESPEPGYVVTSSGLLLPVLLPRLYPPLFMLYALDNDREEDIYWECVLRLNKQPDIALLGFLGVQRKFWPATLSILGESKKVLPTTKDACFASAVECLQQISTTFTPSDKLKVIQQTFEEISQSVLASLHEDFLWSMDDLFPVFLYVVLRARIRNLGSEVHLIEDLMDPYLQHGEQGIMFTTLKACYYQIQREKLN
UniProt P48553: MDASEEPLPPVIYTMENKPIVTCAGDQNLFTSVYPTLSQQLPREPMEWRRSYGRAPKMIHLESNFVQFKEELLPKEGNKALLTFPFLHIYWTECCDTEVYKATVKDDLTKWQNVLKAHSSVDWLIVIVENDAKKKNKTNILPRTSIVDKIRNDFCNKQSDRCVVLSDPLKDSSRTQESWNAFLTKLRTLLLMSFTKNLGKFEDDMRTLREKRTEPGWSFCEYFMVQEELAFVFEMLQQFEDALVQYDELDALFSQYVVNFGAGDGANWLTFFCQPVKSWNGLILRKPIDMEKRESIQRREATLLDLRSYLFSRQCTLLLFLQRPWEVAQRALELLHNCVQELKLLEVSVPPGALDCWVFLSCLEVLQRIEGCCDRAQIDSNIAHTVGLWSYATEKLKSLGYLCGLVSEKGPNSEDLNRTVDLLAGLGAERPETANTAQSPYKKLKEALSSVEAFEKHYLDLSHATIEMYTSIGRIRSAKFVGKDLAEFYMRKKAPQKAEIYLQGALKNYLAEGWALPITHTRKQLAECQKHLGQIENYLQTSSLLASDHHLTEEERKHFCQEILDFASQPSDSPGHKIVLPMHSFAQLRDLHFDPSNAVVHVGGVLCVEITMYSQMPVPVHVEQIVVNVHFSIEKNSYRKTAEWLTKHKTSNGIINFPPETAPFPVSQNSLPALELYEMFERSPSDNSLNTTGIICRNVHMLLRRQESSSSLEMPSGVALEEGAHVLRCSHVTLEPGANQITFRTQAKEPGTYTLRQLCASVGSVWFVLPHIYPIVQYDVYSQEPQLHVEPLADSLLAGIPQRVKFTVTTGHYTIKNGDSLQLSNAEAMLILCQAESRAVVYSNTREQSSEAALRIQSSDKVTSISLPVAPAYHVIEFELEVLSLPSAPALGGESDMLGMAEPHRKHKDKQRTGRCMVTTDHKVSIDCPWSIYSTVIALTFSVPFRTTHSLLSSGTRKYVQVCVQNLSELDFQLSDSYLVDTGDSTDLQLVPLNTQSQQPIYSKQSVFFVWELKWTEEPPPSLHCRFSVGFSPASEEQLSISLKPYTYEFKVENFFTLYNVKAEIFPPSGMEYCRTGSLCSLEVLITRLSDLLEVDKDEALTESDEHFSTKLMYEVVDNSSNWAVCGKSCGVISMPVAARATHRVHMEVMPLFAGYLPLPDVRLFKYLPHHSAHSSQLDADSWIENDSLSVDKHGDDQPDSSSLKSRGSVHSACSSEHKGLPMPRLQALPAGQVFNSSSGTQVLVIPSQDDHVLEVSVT

MYC:APEX2:RAB32 (human) [2] = target: T2, MYC:APEX2:RAB32 (human) (UniProt Q13637)
T2 sequence: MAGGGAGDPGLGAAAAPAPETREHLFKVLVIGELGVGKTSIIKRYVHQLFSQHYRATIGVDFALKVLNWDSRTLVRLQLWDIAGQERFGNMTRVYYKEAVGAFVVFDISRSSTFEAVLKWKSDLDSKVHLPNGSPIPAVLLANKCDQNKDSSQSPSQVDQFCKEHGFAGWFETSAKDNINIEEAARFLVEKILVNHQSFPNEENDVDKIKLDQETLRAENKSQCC

APEX2:RAB21 (human) = APEX2:RAB21 (human) (UniProt Q9UL25)
APEX2:RAB7A (human) = APEX2:RAB7A (human) (UniProt P51149)
MYC:APEX2:RAB25 (human) [3] = target: T1, MYC:APEX2:RAB25 (human); remark: listed apart in the source
MYC:APEX2:RAB32 (human) [4] = target: T2, MYC:APEX2:RAB32 (human); remark: listed apart in the source
MYC:APEX2:RAB35 (human) = MYC:APEX2:RAB35 (human) (UniProt Q15286)

Molecule: TRAPPC1 (from UniProt Q9Y5R8 1-145)
- binding (MYC:APEX2:RAB25 (human) [1]): binds

Molecule: VARP (from UniProt Q96NW4 1-1050)
- binding (MYC:APEX2:RAB32 (human) [2]): binds
- binding (APEX2:RAB21 (human)): binds

Molecule: TBC1D5 (from UniProt Q92609 1-795)
- binding (APEX2:RAB7A (human)): binds

Molecule: ALS2 (endogenous) (from UniProt Q96Q42 1-1657)
- binding (MYC:APEX2:RAB25 (human) [1]): binds

Molecule: TRAPPC10 (from UniProt P48553 1-1259)
- binding (MYC:APEX2:RAB25 (human) [1]): binds

B1: DENND6A (endogenous) (protein, UniProt Q8IWF6 1-608)
chain: MALRGPAGLGPGSRRPLDEAVAGAEGREAPALVAAGGAPEDDEEDDGRGRGLLRWDSFSAWLHCVCVVGFDLELGQAVEVIYPQHSKLTDREKTNICYLSFPDSNSGCLGDTQFCFRFRQSSGRRVSLHCLLDQFDKDLPVYLKKDPAYFYGYVYFRQVRDKTLKRGYFQKSLVLISKLPYIHFFHTVLKQIAPEYFEKNEPYLEAACNDVDRWPAPVPGKTLHLPIMGVVMKVRIPTCHDKPGTTQIVQLTQQVDTNISVILPTVHEVDIFRCFCPVFLHSQMLWELVLLGEPLVVMAPSPSESSETVLALVNCISPLKYFSDFRPYFTIHDSEFKEYTTRTQAPPSVILGVTNPFFAKTLQHWPHIIRIGDLKPTGEIPKQVKVKKLKNLKTLDSKPGVYTSYKPYLNRDEEIIKQLQKGVQQKRPSEAQSVILRRYFLELTQSFIIPLERYVASLMPLQKSISPWKSPPQLRQFLPEEFMKTLEKTGPQLTSRIKGDWIGLYRHFLKSPNFDGWFKTRRKEMTQKLEALHLEALCEEDLLLWIQKHTEVETVDLVLKLKNKLLQADREHLPVKPDTMEKLRTHIDAIILALPEDLQGILLKTGMT
- binding (MYC:APEX2:RAB25 (human) [3]): binds

B2: GRAB (endogenous) (protein, UniProt Q8TBN0 1-382)
chain: MWSGPPQPDQGLPPPLAAVPVPWKSTDPCQGHRESPGALVETSAGEEAQGQEGPAAAQLDVLRLRSSSMEIREKGSEFLKEELHRAQKELKLKDEECERLSKVREQLEQELEELTASLFEEAHKMVREANMKQAASEKQLKEARGKIDMLQAEVTALKTLVITSTPASPNRELHPQLLSPTKAGPRKGHSRHKSTSSTLCPAVCPAAGHTLTPDREGKEVDTILFAEFQAWRESPTLDKTCPFLERVYREDVGPCLDFTMQELSVLVRAAVEDNTLTIEPVASQTLPTVKVAEVDCSSTNTCALSGLTRTCRHRIRLGDSKSHYYISPSSRARITAVCNFFTYIRYIQQGLVRQDAEPMFWEIMRLRKEMSLAKLGFFPQEA
- binding (MYC:APEX2:RAB32 (human) [4]): binds

B3: TBC1D10B (protein, UniProt Q4KMP7 1-808)
chain: METGTAPLVAPPRRHGAPAAPSPPPRGSRAGPVVVVAPGPPVTTATSAPVTLVAPGEARPAWVPGSAETSAPAPAPAPAPAPAVTGSTVVVLTLEASPEAPKPQLPSGPESPEPAAVAGVETSRALAAGADSPKTEEARPSPAPGPGTPTGTPTRTPSRTAPGALTAKPPLAPKPGTTVASGVTARSASGQVTGGHGAAAATSASAGQAPEDPSGPGTGPSGTCEAPVAVVTVTPAPEPAENSQDLGSTSSLGPGISGPRGQAPDTLSYLDSVSLMSGTLESLADDVSSMGSDSEINGLALRKTDKYGFLGGSQYSGSLESSIPVDVARQRELKWLDMFSNWDKWLSRRFQKVKLRCRKGIPSSLRAKAWQYLSNSKELLEQNPGKFEELERAPGDPKWLDVIEKDLHRQFPFHEMFAARGGHGQQDLYRILKAYTIYRPDEGYCQAQAPVAAVLLMHMPAEQAFWCLVQICDKYLPGYYSAGLEAIQLDGEIFFALLRRASPLAHRHLRRQRIDPVLYMTEWFMCIFARTLPWASVLRVWDMFFCEGVKIIFRVALVLLRHTLGSVEKLRSCQGMYETMEQLRNLPQQCMQEDFLVHEVTNLPVTEALIERENAAQLKKWRETRGELQYRPSRRLHGSRAIHEERRRQQPPLGPSSSLLSLPGLKSRGSRAAGGAPSPPPPVRRASAGPAPGPVVTAEGLHPSLPSPTGNSTPLGSSKETRKQEKERQKQEKERQKQEKEREKERQKQEKEREKQEKEREKQEKERQKQEKKAQGRKLSLRRKADGPPGPHDGGDRPSAEARQDAYF
- binding (MYC:APEX2:RAB35 (human)): binds

B4: RN-TRE (USP6-NL) (protein, UniProt Q92738 1-828)
chain: MNSDQDVALKLAQERAEIVAKYDRGREGAEIEPWEDADYLVYKVTDRFGFLHEEELPDHNVAVERQKHLEIERTTKWLKMLKGWEKYKNTEKFHRRIYKGIPLQLRGEVWALLLEIPKMKEETRDLYSKLKHRARGCSPDIRQIDLDVNRTFRDHIMFRDRYGVKQQSLFHVLAAYSIYNTEVGYCQGMSQITALLLMYMNEEDAFWALVKLFSGPKHAMHGFFVQGFPKLLRFQEHHEKILNKFLSKLKQHLDSQEIYTSFYTMKWFFQCFLDRTPFTLNLRIWDIYIFEGERVLTAMSYTILKLHKKHLMKLSMEELVEFFQETLAKDFFFEDDFVIEQLQISMTELKRAKLDLPEPGKEDEYPKKPLGQLPPELQSWGVHHLSNGQRSVGRPSPLASGRRESGAPHRRHEHSPHPQSRTGTPERAQPPRRKSVEEESKKLKDEADFQRKLPSGPQDSSRQYNHAAANQNSNATSNIRKEFVPKWNKPSDVSATERTAKYTMEGKGRAAHPALAVTVPGPAEVRVSNVRPKMKALDAEDGKRGSTASQYDNVPGPELDSGASVEEALERAYSQSPRHALYPPSPRKHAEPSSSPSKVSNKFTFKVQPPSHARYPSQLDGEARGLAHPPSYSNPPVYHGNSPKHFPTANSSFASPQFSPGTQLNPSRRPHGSTLSVSASPEKSYSRPSPLVLPSSRIEVLPVDTGAGGYSGNSGSPKNGKLIIPPVDYLPDNRTWSEVSYTYRPETQGQSWTRDASRGNLPKYSAFQLAPFQDHGLPAVSVDSPVRYKASPAAEDASPSGYPYSGPPPPAYHYRNRDGLSIQESVLL
- binding (MYC:APEX2:RAB35 (human)): binds

B5: TBC1D8B (protein, UniProt Q0IIM8 1-1120)
chain: MWLKPEEVLLKNALKLWLMERSNDYFVLQRRRGYGEEGGGGLTGLLVGTLDSVLDSTAKVAPFRILHQTPDSQVYLSIACGANREEITKHWDWLEQNIMKTLSVFDSNEDITNFVQGKIRGLIAEEGKHCFAKEDDPEKFREALLKFEKCFGLPEKEKLVTYYSCSYWKGRVPCQGWLYLSTNFLSFYSFLLGSEIKLIISWDEVSKLEKTSNVILTESIHVCSQGENHYFSMFLHINQTYLLMEQLANYAIRRLFDKETFDNDPVLYNPLQITKRGLENRAHSEQFNAFFRLPKGESLKEVHECFLWVPFSHFNTHGKMCISENYICFASQDGNQCSVIIPLREVLAIDKTNDSSKSVIISIKGKTAFRFHEVKDFEQLVAKLRLRCGAASTQYHDISTELAISSESTEPSDNFEVQSLTSQRECSKTVNTEALMTVFHPQNLETLNSKMLKEKMKEQSWKILFAECGRGVSMFRTKKTRDLVVRGIPETLRGELWMLFSGAVNDMATNPDYYTEVVEQSLGTCNLATEEIERDLRRSLPEHPAFQSDTGISALRRVLTAYAYRNPKIGYCQAMNILTSVLLLYAKEEEAFWLLVAVCERMLPDYFNRRIIGALVDQAVFEELIRDHLPQLTEHMTDMTFFSSVSLSWFLTLFISVLPIESAVNVVDCFFYDGIKAILQLGLAILDYNLDKLLTCKDDAEAVTALNRFFDNVTNKDSPLPSNVQQGSNVSDEKTSHTRVDITDLIRESNEKYGNIRYEDIHSMRCRNRLYVIQTLEETTKQNVLRVVSQDVKLSLQELDELYVIFKKELFLSCYWCLGCPVLKHHDPSLPYLEQYQIDCQQFRALYHLLSPWAHSANKDSLALWTFRLLDENSDCLINFKEFSSAIDIMYNGSFTEKLKLLFKLHIPPAYTEVKSKDASKGDELSKEELLYFSQLHVSKPANEKEAESAKHSPEKGKGKIDIQAYLSQWQDELFKKEENIKDLPRMNQSQFIQFSKTLYNLFHEDPEEESLYQAIAVVTSLLLRMEEVGRKLHSPTSSAKGFSGTVCGSGGPSEEKTGSHLEKDPCSFREEPQWSFAFEQILASLLNEPALVRFFEKPIDVKAKLENARISQLRSRTKM
- binding (MYC:APEX2:RAB25 (human) [3]): binds
